No constants are given. Whether binding was seen depends on the method and setting. Binding seen in cells or lysates may run through a third protein. These calls come from enrichment with a bait or labelling near it, and not all partners need be listed. Sequences can lack the tags named with a protein.
T1: Cdc55^reg tagged with protein A (Cdc55^reg-ProtA) (yeast (Saccharomyces cerevisiae, BY4741)) (UniProt Q00362)
T1 sequence: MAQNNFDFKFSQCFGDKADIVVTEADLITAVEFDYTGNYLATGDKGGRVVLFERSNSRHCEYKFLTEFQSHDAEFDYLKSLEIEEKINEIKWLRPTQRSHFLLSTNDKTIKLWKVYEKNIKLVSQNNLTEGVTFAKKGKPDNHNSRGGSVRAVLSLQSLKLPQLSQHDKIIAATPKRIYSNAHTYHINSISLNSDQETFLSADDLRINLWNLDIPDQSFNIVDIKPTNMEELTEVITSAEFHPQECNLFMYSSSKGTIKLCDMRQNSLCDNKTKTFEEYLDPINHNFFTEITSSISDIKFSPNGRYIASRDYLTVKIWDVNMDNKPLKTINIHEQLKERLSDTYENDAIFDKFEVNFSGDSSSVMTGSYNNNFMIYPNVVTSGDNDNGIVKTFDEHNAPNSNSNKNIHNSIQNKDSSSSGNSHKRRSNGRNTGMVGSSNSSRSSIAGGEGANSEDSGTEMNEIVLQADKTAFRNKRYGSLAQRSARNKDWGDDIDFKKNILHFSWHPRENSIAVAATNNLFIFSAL

The chains behind the UniProt entries cited, without tags or fusion partners.
UniProt P23595: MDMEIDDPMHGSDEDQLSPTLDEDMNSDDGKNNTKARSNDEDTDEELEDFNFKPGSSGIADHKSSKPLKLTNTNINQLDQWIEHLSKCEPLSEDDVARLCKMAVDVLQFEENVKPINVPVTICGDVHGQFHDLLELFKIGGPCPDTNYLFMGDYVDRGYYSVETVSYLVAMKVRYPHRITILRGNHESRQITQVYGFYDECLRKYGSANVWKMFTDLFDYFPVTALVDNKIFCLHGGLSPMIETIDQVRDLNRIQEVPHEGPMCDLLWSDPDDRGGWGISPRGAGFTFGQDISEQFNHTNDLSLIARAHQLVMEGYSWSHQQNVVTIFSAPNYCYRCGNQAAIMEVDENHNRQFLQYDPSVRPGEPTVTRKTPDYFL

T2: Psy2^reg tagged with protein A (Psy2^reg-ProtA) (yeast (Saccharomyces cerevisiae, BY4741)) (UniProt P40164)
T2 sequence: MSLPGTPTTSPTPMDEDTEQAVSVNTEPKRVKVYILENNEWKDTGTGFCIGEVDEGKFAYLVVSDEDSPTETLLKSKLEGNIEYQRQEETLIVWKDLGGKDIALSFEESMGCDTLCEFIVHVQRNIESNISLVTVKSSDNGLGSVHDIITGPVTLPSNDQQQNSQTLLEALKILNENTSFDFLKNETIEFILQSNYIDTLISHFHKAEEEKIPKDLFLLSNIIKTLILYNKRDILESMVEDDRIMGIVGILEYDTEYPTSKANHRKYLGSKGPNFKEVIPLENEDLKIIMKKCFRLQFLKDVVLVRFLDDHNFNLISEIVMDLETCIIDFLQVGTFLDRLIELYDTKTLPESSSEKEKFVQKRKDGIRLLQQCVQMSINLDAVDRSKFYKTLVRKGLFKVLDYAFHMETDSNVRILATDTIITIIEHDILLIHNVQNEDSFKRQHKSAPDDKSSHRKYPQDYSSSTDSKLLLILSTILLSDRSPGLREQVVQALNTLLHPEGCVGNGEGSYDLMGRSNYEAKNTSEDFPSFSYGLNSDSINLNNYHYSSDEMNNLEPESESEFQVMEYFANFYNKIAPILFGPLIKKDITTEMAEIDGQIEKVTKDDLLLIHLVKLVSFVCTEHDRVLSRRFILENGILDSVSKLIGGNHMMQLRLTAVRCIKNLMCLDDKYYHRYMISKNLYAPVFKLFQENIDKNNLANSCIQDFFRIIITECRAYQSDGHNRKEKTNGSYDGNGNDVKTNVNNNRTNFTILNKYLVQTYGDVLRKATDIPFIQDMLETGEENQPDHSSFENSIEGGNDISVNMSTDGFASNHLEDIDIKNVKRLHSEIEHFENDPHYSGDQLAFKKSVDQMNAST


Assays:
[1] = biological target: T1, Cdc55^reg tagged with protein A (Cdc55^reg-ProtA) (yeast (Saccharomyces cerevisiae, BY4741)); assay: affinity purification with mass spectrometry; Cdc55^reg-ProtA from BY4741 yeast lysate on IgG beads, eluted by TEV protease; product analysed by mass spectrometry (LFQ intensity); control: strain without ProtA
[2] = biological target: T2, Psy2^reg tagged with protein A (Psy2^reg-ProtA) (yeast (Saccharomyces cerevisiae, BY4741)); assay: affinity purification with mass spectrometry; Psy2^reg-ProtA from BY4741 wild-type yeast lysate on IgG beads, eluted by TEV protease; product analysed by mass spectrometry (LFQ intensity)
[3] = biological target: T2, Psy2^reg tagged with protein A (Psy2^reg-ProtA) (yeast (Saccharomyces cerevisiae, BY4741)); assay: affinity purification with mass spectrometry; Psy2^reg-ProtA from BY4741 pph3Δ yeast lysate (no catalytic subunit Pph3) on IgG beads, eluted by TEV protease; product analysed by mass spectrometry

| binding [1] | binding [2] | binding [3] | Molecule |
| --- | --- | --- | --- |
| binds |  |  | Pph22^cat, catalytic subunit of PP2A (from UniProt P23595 1-377) (enzyme) |
|  | binds | binds weakly | Psy4^reg, regulatory subunit of PP4 (protein, UniProt P38193 1-441) MSSTMLDDVDNNMMGIKSISLYELLSDVVKQGDKTRLVTAGPEQVLPDLIRHITETIPFDLFINLKNEMNDARNLVTRLNWLGKFLNDNFLQNHTFPFTILRICELCYDPFKYYKINELEKFVNALEKCCMVTSSWQVFDKTHGEKQEDDKEKDINFIKNQEDVSLMKIPWMTENNTRELAPFIREIDSIMSVNLGYDDEDEEEGFFDGDEDREMGNKSKRNVLLKDENFMVEEYYEDDCGINDDNSDNKGQNCQSDVTKNNSDDEDDDDNDDDYREDGADEDDEDDDHMGSTDDDEDDDEDRQAGESTKVQNFDKKNETPRKRKPTDLDNFEYDESPSFTNMDLTTPKKYKHTATGRFSIIESPSSSLLNAMDGSNEISSSQEEEKEDAHENHEGRSEGLLPGDELVSPSMSSSQEDKMVAIAGITYRENISSPLGKKSR |
|  | binds |  | Pph3^cat, catalytic subunit of PP4 (enzyme, UniProt P32345 1-308) MMDLDKIIASLRDGKHIPEETVFRLCLNSQELLMNEGNVTQVDTPVTICGDIHGQLHDLLTLFEKSGGVEKTRYIFLGDFVDRGFYSLESFLLLLCYKLRYPDRITLIRGNHETRQITKVYGFYDEVVRKYGNSNVWRYCCEVFDYLSLGAIINNSIFCVHGGLSPDMTTVDEIRTIDRKQEVPHEGAMCDLLWSDPEDVDTWSLSPRGAGFLFGKREVDQFLEKNNVELIARAHQLVMEGYKEMFDGGLVTVWSAPNYCYRCGNVAAVLKIDDDLNREYTIFEAVQAQNEVGNAIIPTKKSQMDYFL |

From paper PMC12797000
